B1: 104N, 72A (protein, listed as Rattus norvegicus)
chain: AFDGTWKVDRNENYEKFMEKMGINVVKRKLGAHDNLKLTITQEGNKFTVKESSNFRNIDVVFELGVDFAYSAADGTELTGTWTMEGNKLVGKFKRVDNGKELINVREISGNELIQTYTYEGVEAKRIFKKE
modifications: PEPTIDE (1)...(131) wild-type rat intestinal fatty acid binding protein
B2: 62Y, 72A (protein, listed as Rattus norvegicus)
chain: AFDGTWKVDRNENYEKFMEKMGINVVKRKLGAHDNLKLTITQEGNKFTVKESSNFRNIDVVYELGVDFAYSAADGTELTGTWTMEGNKLVGKFKRVDNGKELIAVREISGNELIQTYTYEGVEAKRIFKKE
modifications: PEPTIDE (1)...(131) wild-type rat intestinal fatty acid binding protein
B3: 38Q 62I 106I 117A 72A (protein, listed as Rattus norvegicus)
chain: AFDGTWKVDRNENYEKFMEKMGINVVKRKLGAHDNLKQTITQEGNKFTVKESSNFRNIDVVIELGVDFAYSAADGTELTGTWTMEGNKLVGKFKRVDNGKELIAVIEISGNELIQTATYEGVEAKRIFKKE
modifications: PEPTIDE (1)...(131) wild-type rat intestinal fatty acid binding protein
B4: 38M 104S 115A 74F 72A (protein, listed as Rattus norvegicus)
chain: AFDGTWKVDRNENYEKFMEKMGINVVKRKLGAHDNLKMTITQEGNKFTVKESSNFRNIDVVFELGVDFAYSAAFGTELTGTWTMEGNKLVGKFKRVDNGKELISVREISGNELIATYTYEGVEAKRIFKKE
modifications: PEPTIDE (1)...(131) wild-type rat intestinal fatty acid binding protein
B5: 31I, 72A (protein, listed as Rattus norvegicus)
chain: AFDGTWKVDRNENYEKFMEKMGINVVKRKLIAHDNLKLTITQEGNKFTVKESSNFRNIDVVFELGVDFAYSAADGTELTGTWTMEGNKLVGKFKRVDNGKELIAVREISGNELIQTYTYEGVEAKRIFKKE
modifications: PEPTIDE (1)...(131) wild-type rat intestinal fatty acid binding protein
B6: 31R, 72A (protein, listed as Rattus norvegicus)
chain: AFDGTWKVDRNENYEKFMEKMGINVVKRKLRAHDNLKLTITQEGNKFTVKESSNFRNIDVVFELGVDFAYSAADGTELTGTWTMEGNKLVGKFKRVDNGKELIAVREISGNELIQTYTYEGVEAKRIFKKE
modifications: PEPTIDE (1)...(131) wild-type rat intestinal fatty acid binding protein
B7: 38W, 72A (protein, listed as Rattus norvegicus)
chain: AFDGTWKVDRNENYEKFMEKMGINVVKRKLGAHDNLKWTITQEGNKFTVKESSNFRNIDVVFELGVDFAYSAADGTELTGTWTMEGNKLVGKFKRVDNGKELIAVREISGNELIQTYTYEGVEAKRIFKKE
modifications: PEPTIDE (1)...(131) wild-type rat intestinal fatty acid binding protein
B8: 49I, 72A (protein, listed as Rattus norvegicus)
chain: AFDGTWKVDRNENYEKFMEKMGINVVKRKLGAHDNLKLTITQEGNKFTIKESSNFRNIDVVFELGVDFAYSAADGTELTGTWTMEGNKLVGKFKRVDNGKELIAVREISGNELIQTYTYEGVEAKRIFKKE
modifications: PEPTIDE (1)...(131) wild-type rat intestinal fatty acid binding protein
B9: 18I 31Y 73I 72A (protein, listed as Rattus norvegicus)
chain: AFDGTWKVDRNENYEKFIEKMGINVVKRKLYAHDNLKLTITQEGNKFTVKESSNFRNIDVVFELGVDFAYSAIDGTELTGTWTMEGNKLVGKFKRVDNGKELIAVREISGNELIQTYTYEGVEAKRIFKKE
modifications: PEPTIDE (1)...(131) wild-type rat intestinal fatty acid binding protein
B10: 18V 31I 55L 73V 72A (protein, listed as Rattus norvegicus)
chain: AFDGTWKVDRNENYEKFVEKMGINVVKRKLIAHDNLKLTITQEGNKFTVKESSNLRNIDVVFELGVDFAYSAVDGTELTGTWTMEGNKLVGKFKRVDNGKELIAVREISGNELIQTYTYEGVEAKRIFKKE
modifications: PEPTIDE (1)...(131) wild-type rat intestinal fatty acid binding protein
B11: 14I 18L 31W 73V 117G 72A (protein, listed as Rattus norvegicus)
chain: AFDGTWKVDRNENIEKFLEKMGINVVKRKLWAHDNLKLTITQEGNKFTVKESSNFRNIDVVFELGVDFAYSAVDGTELTGTWTMEGNKLVGKFKRVDNGKELIAVREISGNELIQTGTYEGVEAKRIFKKE
modifications: PEPTIDE (1)...(131) wild-type rat intestinal fatty acid binding protein
B12: 31E, 72A (protein, listed as Rattus norvegicus)
chain: AFDGTWKVDRNENYEKFMEKMGINVVKRKLEAHDNLKLTITQEGNKFTVKESSNFRNIDVVFELGVDFAYSAADGTELTGTWTMEGNKLVGKFKRVDNGKELIAVREISGNELIQTYTYEGVEAKRIFKKE
modifications: PEPTIDE (1)...(131) wild-type rat intestinal fatty acid binding protein
B13: 18L 73F 117G 72A (protein, listed as Rattus norvegicus)
chain: AFDGTWKVDRNENYEKFLEKMGINVVKRKLGAHDNLKLTITQEGNKFTVKESSNFRNIDVVFELGVDFAYSAFDGTELTGTWTMEGNKLVGKFKRVDNGKELIAVREISGNELIQTGTYEGVEAKRIFKKE
modifications: PEPTIDE (1)...(131) wild-type rat intestinal fatty acid binding protein
B14: 78F 102I 72A (protein, listed as Rattus norvegicus)
chain: AFDGTWKVDRNENYEKFMEKMGINVVKRKLGAHDNLKLTITQEGNKFTVKESSNFRNIDVVFELGVDFAYSAADGTEFTGTWTMEGNKLVGKFKRVDNGKEIIAVREISGNELIQTYTYEGVEAKRIFKKE
modifications: PEPTIDE (1)...(131) wild-type rat intestinal fatty acid binding protein
B15: 14A 18Y 31W 73G 117V 72A (protein, listed as Rattus norvegicus)
chain: AFDGTWKVDRNENAEKFYEKMGINVVKRKLWAHDNLKLTITQEGNKFTVKESSNFRNIDVVFELGVDFAYSAGDGTELTGTWTMEGNKLVGKFKRVDNGKELIAVREISGNELIQTVTYEGVEAKRIFKKE
modifications: PEPTIDE (1)...(131) wild-type rat intestinal fatty acid binding protein
B16: 104T 115A 74F 72A (protein, listed as Rattus norvegicus)
chain: AFDGTWKVDRNENYEKFMEKMGINVVKRKLGAHDNLKLTITQEGNKFTVKESSNFRNIDVVFELGVDFAYSAAFGTELTGTWTMEGNKLVGKFKRVDNGKELITVREISGNELIATYTYEGVEAKRIFKKE
modifications: PEPTIDE (1)...(131) wild-type rat intestinal fatty acid binding protein
B17: 31T, 72A (protein, listed as Rattus norvegicus)
chain: AFDGTWKVDRNENYEKFMEKMGINVVKRKLTAHDNLKLTITQEGNKFTVKESSNFRNIDVVFELGVDFAYSAADGTELTGTWTMEGNKLVGKFKRVDNGKELIAVREISGNELIQTYTYEGVEAKRIFKKE
modifications: PEPTIDE (1)...(131) wild-type rat intestinal fatty acid binding protein
B18: 14L 18L 31Y 73L 117A 72A (protein, listed as Rattus norvegicus)
chain: AFDGTWKVDRNENLEKFLEKMGINVVKRKLYAHDNLKLTITQEGNKFTVKESSNFRNIDVVFELGVDFAYSALDGTELTGTWTMEGNKLVGKFKRVDNGKELIAVREISGNELIQTATYEGVEAKRIFKKE
modifications: PEPTIDE (1)...(131) wild-type rat intestinal fatty acid binding protein
B19: 70Q, 72A (protein, listed as Rattus norvegicus)
chain: AFDGTWKVDRNENYEKFMEKMGINVVKRKLGAHDNLKLTITQEGNKFTVKESSNFRNIDVVFELGVDFAQSAADGTELTGTWTMEGNKLVGKFKRVDNGKELIAVREISGNELIQTYTYEGVEAKRIFKKE
modifications: PEPTIDE (1)...(131) wild-type rat intestinal fatty acid binding protein
B20: 18V 31Y 73V 72A (protein, listed as Rattus norvegicus)
chain: AFDGTWKVDRNENYEKFVEKMGINVVKRKLYAHDNLKLTITQEGNKFTVKESSNFRNIDVVFELGVDFAYSAVDGTELTGTWTMEGNKLVGKFKRVDNGKELIAVREISGNELIQTYTYEGVEAKRIFKKE
modifications: PEPTIDE (1)...(131) wild-type rat intestinal fatty acid binding protein
B21: 18V 31Y 73I 72A (protein, listed as Rattus norvegicus)
chain: AFDGTWKVDRNENYEKFVEKMGINVVKRKLYAHDNLKLTITQEGNKFTVKESSNFRNIDVVFELGVDFAYSAIDGTELTGTWTMEGNKLVGKFKRVDNGKELIAVREISGNELIQTYTYEGVEAKRIFKKE
modifications: PEPTIDE (1)...(131) wild-type rat intestinal fatty acid binding protein
B22: 18I 31F 73V 72A (protein, listed as Rattus norvegicus)
chain: AFDGTWKVDRNENYEKFIEKMGINVVKRKLFAHDNLKLTITQEGNKFTVKESSNFRNIDVVFELGVDFAYSAVDGTELTGTWTMEGNKLVGKFKRVDNGKELIAVREISGNELIQTYTYEGVEAKRIFKKE
modifications: PEPTIDE (1)...(131) wild-type rat intestinal fatty acid binding protein
B23: 62W, 72A (protein, listed as Rattus norvegicus)
chain: AFDGTWKVDRNENYEKFMEKMGINVVKRKLGAHDNLKLTITQEGNKFTVKESSNFRNIDVVWELGVDFAYSAADGTELTGTWTMEGNKLVGKFKRVDNGKELIAVREISGNELIQTYTYEGVEAKRIFKKE
modifications: PEPTIDE (1)...(131) wild-type rat intestinal fatty acid binding protein

Assay: Baseline fluorescence ratio Ro of probe in absence of analyte
Conditions: baseline fluorescence ratio of probe

Molecule | Ro
B1 | 0.396
B2 | 0.238
B3 | 0.215
B4 | 0.325

Same assay, conditions: baseline fluorescence ratio of probe, no fatty acid

Molecule | Ro
B5 | 0.680
B6 | 0.182
B7 | 0.231
B1 | 0.396
B8 | 0.362
B9 | 0.340
B10 | 0.316
B11 | 0.470
B12 | 0.308
B13 | 0.400
B14 | 0.297
B15 | 0.261
B16 | 0.287
B17 | 0.389
B18 | 0.581
B3 | 0.215
B19 | 0.307
B20 | 0.343
B21 | 0.359
B4 | 0.325
B22 | 0.355
B23 | 0.211
